The text below walks through data of publication PMC5384254, “Discovery of new muscarinic acetylcholine receptor antagonists from Scopolia tangutica” (Scientific Reports, 2017).

Protein sequences, listed by entry. Tags and fused reporters are not part of them.
UniProt P20309, whole entry: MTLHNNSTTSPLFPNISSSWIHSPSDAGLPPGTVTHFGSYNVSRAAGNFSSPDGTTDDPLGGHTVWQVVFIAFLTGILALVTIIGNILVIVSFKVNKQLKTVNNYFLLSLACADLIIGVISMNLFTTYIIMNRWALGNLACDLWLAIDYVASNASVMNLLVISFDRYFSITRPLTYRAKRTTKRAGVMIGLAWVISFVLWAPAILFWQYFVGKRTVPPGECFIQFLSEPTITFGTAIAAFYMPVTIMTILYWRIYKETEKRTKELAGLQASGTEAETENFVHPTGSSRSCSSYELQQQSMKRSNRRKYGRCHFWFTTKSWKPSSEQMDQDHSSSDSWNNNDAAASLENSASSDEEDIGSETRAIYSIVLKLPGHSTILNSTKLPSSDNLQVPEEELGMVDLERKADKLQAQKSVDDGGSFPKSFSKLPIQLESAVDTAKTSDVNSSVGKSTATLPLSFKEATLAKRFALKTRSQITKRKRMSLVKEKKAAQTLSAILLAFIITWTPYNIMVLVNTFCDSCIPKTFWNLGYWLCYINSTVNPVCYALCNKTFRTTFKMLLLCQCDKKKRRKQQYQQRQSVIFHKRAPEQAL

The assay addresses M3 receptor (Homo sapiens, UniProt P20309). In words: two-step DMR assay, pure compounds, on endogenous M3 receptor in HT-29 cells.

For orientation: IC50 means the point on the concentration scale where inhibition reaches its midpoint. A low value points to greater potency in that assay.

In turn, `CN1[C@@H]2C[C@@H](OC(=O)[C@H](CO)c3ccccc3)C[C@H]1[C@@H]1O[C@@H]12` [Compound 1, scopolamine, reference compound] returned an IC50 of 40 ± 10 nM.
